PubChem BioAssay AID493246, Drosophila RNAi Screening Center, 2011
Aim: 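Genome-wide search for dsRNAs that reduce cell number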 (primary screen). System: Drosophila Kc and S2R+ cells. Reagents: long dsRNA against Drosophila genes. Measurement: 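Raw, unnormalised count of remaining cells in each well; per-plate z-scores of cell number underlie the calls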. Direction: Kc cell number and S2R+ cell number: higher = more cells remaining. Rule for the call: 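Counted as a hit if cell number falls by a z-score of at least 3 within its plate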.
The deposit covers about 21,000 reagents; shown is an unselected part of those that have a named target and a result. Of all reagents, 429 (2%) are marked active. 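Values are raw and not normalised between plates; calls rest on per-plate z-scores that were not deposited.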 Not given: the amount of reagent, the time to read-out.

CG10283 (GeneID 35102) [DRSC02034] gave Kc cell number, rep 1 = 1.34e6; Kc cell number, rep 2 = 1.34e6; S2R+ cell number, rep 1 = 1.28e6; S2R+ cell number, rep 2 = 1.07e6; inactive.
For CG10467 (GeneID 38697) [DRSC09728] the deposit lists Kc cell number, rep 1 = 1.51e6; Kc cell number, rep 2 = 1.25e6; S2R+ cell number, rep 1 = 1.08e6; S2R+ cell number, rep 2 = 1.20e6; inactive.
Against GILT2 (GeneID 42788) [DRSC14196], the values are Kc cell number, rep 1 = 1.62e6; Kc cell number, rep 2 = 1.69e6; S2R+ cell number, rep 1 = 1.28e6; S2R+ cell number, rep 2 = 1.37e6; inactive.
For brun (GeneID 35325) [DRSC02706], the values are Kc cell number, rep 1 = 1.18e6; Kc cell number, rep 2 = 1.44e6; S2R+ cell number, rep 1 = 1.24e6; S2R+ cell number, rep 2 = 1.17e6; inactive.
Knock-down of CG31205 (GeneID 318626) [DRSC13438] resulted in: Kc cell number, rep 1 = 1.38e6; Kc cell number, rep 2 = 1.46e6; S2R+ cell number, rep 1 = 8.58e5; S2R+ cell number, rep 2 = 9.49e5; inactive.
Depletion of NiPp1 (GeneID 44748) [DRSC07307] gave: Kc cell number, rep 1 = 1.43e6; Kc cell number, rep 2 = 1.51e6; S2R+ cell number, rep 1 = 1.13e6; S2R+ cell number, rep 2 = 1.20e6; inactive.
Knock-down of CG32812 (GeneID 31074) [DRSC18478] gave: Kc cell number, rep 1 = 1.72e6; Kc cell number, rep 2 = 1.78e6; S2R+ cell number, rep 1 = 1.19e6; S2R+ cell number, rep 2 = 1.26e6; inactive.
After knock-down of AP-1-2beta (GeneID 32987) [DRSC19336] the results were Kc cell number, rep 1 = 1.51e6; Kc cell number, rep 2 = 1.51e6; S2R+ cell number, rep 1 = 1.00e6; S2R+ cell number, rep 2 = 1.16e6; inactive.
Silencing of CG9667 (GeneID 40960) [DRSC16535] gave: Kc cell number, rep 1 = 1.50e6; Kc cell number, rep 2 = 1.61e6; S2R+ cell number, rep 1 = 1.13e6; S2R+ cell number, rep 2 = 1.26e6; inactive.
With knock-down of Pdp1 (GeneID 45588) [DRSC08896] the results were Kc cell number, rep 1 = 9.79e5; Kc cell number, rep 2 = 8.25e5; S2R+ cell number, rep 1 = 6.17e5; S2R+ cell number, rep 2 = 7.04e5; active.
For Pdp1 (GeneID 45588) [DRSC08897], the values are Kc cell number, rep 1 = 8.14e5; Kc cell number, rep 2 = 6.76e5; S2R+ cell number, rep 1 = 5.68e5; S2R+ cell number, rep 2 = 8.56e5; active.
With knock-down of Pdp1 (GeneID 45588) [DRSC11251] the results were Kc cell number, rep 1 = 1.49e6; Kc cell number, rep 2 = 1.44e6; S2R+ cell number, rep 1 = 1.10e6; S2R+ cell number, rep 2 = 1.09e6; inactive.
